Reference: US20180334510A1 (BRANDEIS UNIVERSITY, published 2018)
These are yes or no findings as the source states them, for the method shown. Some results given as binding are weak or reduced against the parent protein; the word gives no strength.

Experiments:
[1] = target: T1, Y199H; assay: yeast display, single point with Y199H Aurora A, mean fluorescence
T1 construct: also called Y199H mutant Aurora A; Y199H Aurora A hotspot mutant
T1 chain: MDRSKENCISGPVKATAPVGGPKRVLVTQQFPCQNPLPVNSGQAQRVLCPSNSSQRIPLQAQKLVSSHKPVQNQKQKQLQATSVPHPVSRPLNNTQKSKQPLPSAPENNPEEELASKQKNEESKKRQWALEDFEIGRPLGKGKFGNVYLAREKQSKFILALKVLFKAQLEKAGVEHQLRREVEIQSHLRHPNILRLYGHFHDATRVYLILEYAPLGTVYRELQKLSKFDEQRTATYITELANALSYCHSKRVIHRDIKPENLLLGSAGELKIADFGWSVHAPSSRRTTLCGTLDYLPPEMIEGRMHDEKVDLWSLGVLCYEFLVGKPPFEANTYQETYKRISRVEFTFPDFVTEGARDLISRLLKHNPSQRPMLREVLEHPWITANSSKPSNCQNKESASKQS

[2] = target: T2, Aurora A kinase (human, UniProt O14965 122-403, limits assumed); assay: yeast display screening, binding of isolated clones
T2 construct: also called AurA; deP AurA
T2 sequence: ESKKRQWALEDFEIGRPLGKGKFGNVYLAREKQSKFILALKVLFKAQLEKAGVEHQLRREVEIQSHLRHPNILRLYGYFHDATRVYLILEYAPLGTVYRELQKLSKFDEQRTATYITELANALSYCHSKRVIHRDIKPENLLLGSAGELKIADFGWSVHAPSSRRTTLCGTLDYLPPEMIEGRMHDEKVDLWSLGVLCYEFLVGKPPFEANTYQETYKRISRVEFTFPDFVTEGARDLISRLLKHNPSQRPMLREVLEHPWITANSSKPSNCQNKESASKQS

[3] = target: T2, Aurora A kinase; assay: isothermal titration calorimetry
[4] = target: T2, Aurora A kinase; assay: isothermal titration calorimetry, dephosphorylated Aurora A
[5] = target: T2, Aurora A kinase; assay: X-ray crystal structure of the complex

Measured: binding

B1: monobody Mb56 (designed binder)
chain: SVSSVPTKLEVVAATPTSLLISWDAMSDWYYWVDYYRITYGETGGNSPVQEFTVPGSYSTATISGLKPGVDYTITVYASDDVWGDYSPISINYRT
notes: Monobody on a fibronectin type III (FN3) scaffold; also called AuroraA_56
not listed: [5]
binds: all other assays above

B2: monobody Mb54 (designed binder)
chain: SVSSVPTKLEVVAATPTSLLISWDAQTYQMYDYVSYYRITYGETGGNSPVQEFTVPGYYSTATISGLKPGVDYTITVYAEGYYSSYSPISINYRT
notes: Monobody on a fibronectin type III (FN3) scaffold; also called AuroraA_54
not listed: [1]
binds: all other assays above

B3: monobody Mb60 (designed binder)
chain: SVSSVPTKLEVVAATPTSLLISWDAPAVTVVHYVITYGETGGNSPVQEFTVPGSKSTATISGLKPGVDYTITVYAIDFYWGSYSPISINYRT
notes: Monobody on a fibronectin type III (FN3) scaffold; also called AuroraA_60
binds: all assays above

B4: monobody Mb44 (designed binder)
chain: SVSSVPTKLEVVAATPTSLLISWDAPAVTVDFYVITYGETGGYSYPWQEFEVPGSKSTATISGLKPGVDYTITVYADYGQYFYSPISINYRT
notes: Monobody on a fibronectin type III (FN3) scaffold; also called AuroraA_44
binds: [2] | [3] | [4]

B5: monobody Mb51 (designed binder)
chain: SVSSVPTKLEVVAATPTSLLISWDAKPMSYEPVYYYRITYGETGGNSPVQEFTVPGYYSTATISGLKPGVDYTITVYADSMSSYYYSPISINYRT
notes: Monobody on a fibronectin type III (FN3) scaffold; also called AuroraA_51
not listed: [5]
binds: all other assays above

B6: monobody Mb2 (designed binder)
chain: SVSSVPTKLEVVAATPTSLLISWDAFGHQYEPVYYYRITYGETGGNSPVQEFTVPGYYSTATISGLKPGVDYTITVYAWYVDGSYSSPISINYRT
notes: Monobody on a fibronectin type III (FN3) scaffold; also called AuroraA_2
binds: [2] | [3] | [4]
